## Screening data, single-dose tests

Protein sequences, listed by entry. Tags and fused reporters are not part of them.
UniProt P9WPC5, whole entry: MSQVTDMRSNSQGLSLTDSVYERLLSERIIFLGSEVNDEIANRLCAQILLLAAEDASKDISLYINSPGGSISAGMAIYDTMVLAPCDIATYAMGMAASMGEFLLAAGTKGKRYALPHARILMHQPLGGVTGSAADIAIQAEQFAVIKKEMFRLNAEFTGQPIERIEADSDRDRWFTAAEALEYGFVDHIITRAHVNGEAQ
UniProt P9WPC3, whole entry partner: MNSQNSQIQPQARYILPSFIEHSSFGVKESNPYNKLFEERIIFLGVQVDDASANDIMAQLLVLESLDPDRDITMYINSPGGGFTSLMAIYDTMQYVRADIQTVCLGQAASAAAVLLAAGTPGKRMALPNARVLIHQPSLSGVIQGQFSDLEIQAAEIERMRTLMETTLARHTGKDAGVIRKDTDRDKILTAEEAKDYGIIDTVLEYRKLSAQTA

Results are given as percent effect. The controls that fix the scale are not given in the record; negative values are as filed. This is an unselected part of the compounds tested.

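Protease assay of ClpP1P2, read by the AMC dye that it sets free. Target: ClpP1P2, Mycobacterium tuberculosis (UniProt P9WPC5 and UniProt P9WPC3). Compounds at 50 µM. Direction is inferred from only a few compounds that gave an IC50; most scored high, so higher reads as stronger inhibition. Most other retested compounds had strongly negative values. About 69,000 compounds were tested under these conditions; 0.015% (about 10) showed 50% or more at least once.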

* CS(=O)(=O)N1CCCCCC1C1CCN(Cc2nc(C3CC3)no2)CC1 (stereo not given) : -3.453%
* O=C1CO[C@@H]2CN(CC3CCOCC3)C[C@H]2N1Cc1ccncc1 : 4.32%
* NC(=O)c1ccc(S(=O)(=O)NC2CCN(Cc3ccccc3)C2=O)cc1 (stereo not given) : 4.901%
* CCc1cn[nH]c1C1CCN(C(=O)c2cccc(O)c2C)CC1 : -2.219%
* CNC(=O)c1cccc(CC2COCCN(Cc3ccsc3)C2)n1 (stereo not given) : -12.23%
* CN(C1CCN(c2ccccn2)CC1)S(=O)(=O)c1cccc(F)c1 : -4.942%
* CN1CCN(S(C)(=O)=O)Cc2cccnc21 : 4.91%
* CCN(C)C[C@@H]1CN(S(=O)(=O)c2ccc(OC)cc2)C[C@@H]1CO : -8.867%
* CC1(C(=O)NC2CCCC2)CN(c2cnccn2)CCO1 (stereo not given) : -35.04%
* COc1c(C)cnc(CN2CCOC(Cn3cncn3)C2)c1C (stereo not given) : -1.692%
* Cc1cnn(CC2CCCN2C(=O)c2ccccc2-n2cnnn2)c1 (stereo not given) : -10.9%
* NS(=O)(=O)c1cnn(CC(=O)Nc2c(Cl)cccc2Cl)c1 : 5.758%
* O=C(O)C(c1ccc2c(c1)OCO2)N1CCC(C(=O)N2CCCC2)CC1 (stereo not given) : -6.953%
* Cc1[nH]ncc1CCCNC(=O)Nc1ccc(S(C)(=O)=O)nc1 : -0.9958%
* CC(C)Cc1noc(CN2CCN(C(=O)c3ccccc3F)CC2)n1 : 5.961%
* Cc1ccc(S(=O)(=O)NC(=O)COc2ccc(CC#N)cc2)s1 : 10.99%
* CC(C(=O)NC(N)=O)N1CCN(c2ccc(C#N)cc2F)CC1 (stereo not given) : 0.5508%
* CNC(=O)C1(c2cnccn2)CCCN1C(=O)c1ccccc1OC (stereo not given) : 12.37%
* CC(C(=O)NCc1ccnc(Oc2ccc(F)cc2)c1)n1cncn1 (stereo not given) : -2.794%
* Cc1nc2n(n1)CC(NCc1nc(-c3cccs3)no1)CC2 (stereo not given) : 1.237%
* Cc1cnn(CCNCc2ccc(C#N)cc2F)c1 : 6.184%
* Cc1ccc(CN(Cc2[nH]cnc2C)C2CC(C)(C)NC(C)(C)C2)o1 : 25.45%
* CCc1nc(CN2CCCN(C(=O)CCSC)CC2)cs1 : 8.233%
* O=C(NCCCc1cccs1)N1CCCCC1CCO (stereo not given) : -4.253%
* CNc1ncc(C(=O)N2CCC(c3ccccc3C(=O)O)C2)cn1 (stereo not given) : -21.24%
* Cc1nc(C)n(C2CCCN(C(=O)c3ccn(C(C)C)n3)C2)n1 (stereo not given) : -20.4%
* Cn1ccc(C(=O)NC2CCN(c3ncccn3)CC2)cc1=O : 8.284%
* O=c1[nH][nH]cc1-c1ccnc(NCCc2cccnc2)n1 : 13.11%
* O=C(C1CC=CC1)N1CCc2c(COCc3ccncc3)cncc2C1 : 6.285%
* CCN1CCN(C(=O)c2cnn(-c3ccccc3Cl)c2)CC1 : 2.915%
* CN(Cc1cn2c(n1)CN(C(=O)N(C)C)CC2)Cc1ccco1 : 13.57%
* Cc1cnn(CC(C)NCc2ccc(S(C)(=O)=O)cc2)c1 (stereo not given) : 2.667%
* CCN(Cc1cccc(F)c1)S(=O)(=O)N1CCOCC1 : -11.43%
* Cc1n[nH]c(C2CN(C(=O)c3scnc3C)CCO2)n1 (stereo not given) : -25.05%
* Cc1ccc(N2C[C@H]3CCC[C@@]3(COc3cccnc3)C2)nn1 : 13.55%
* O=C(Cn1nc(Br)nc1Br)N1CCCCC1 : -1.289%
* CC(C)(CNC(=O)NCCOc1cccc(F)c1)C(N)=O : 5.773%
* CCOc1ccc(-c2nc(CN(C)Cc3c(C)noc3C)cs2)cc1 : -8.728%
* CCC(NC(=O)C1CCN(S(=O)(=O)N(C)C)CC1)c1ccc(C)c(C)c1 (stereo not given) : -19.15%
* Oc1cc(-c2cccs2)nc(C2CCCN(CC3=CCCOC3)C2)n1 (stereo not given) : 19.73%
* CC(C)(C)c1ccc(-c2n[nH]c3c2CN(CC2CCOC2)CC3)cc1 (stereo not given) : -7.202%
* CNc1ccnc(N2CC[C@@](O)(C3CCOCC3)[C@H](C)C2)n1 : -2.555%
* Cc1nc(N2CCN(C(=O)c3cccs3)CC2)cc(-n2cccc2)n1 : -12.24%
* CC(C)=CCN1Cc2nnc(C3CCOCC3)n2C(Cc2c[nH]cn2)C1 (stereo not given) : -16.14%
* Cc1ccc(NC2CCN(C(=O)c3cccn3C)CC2)nn1 : 5.052%
* COc1cc(NC(=O)c2ccc(CN3CC[C@H](O)C3)cc2)cc(OC)c1 : 1.39%
* CN(Cc1cnn(C)c1)C(=O)NCC1CCS(=O)(=O)C1 (stereo not given) : -26.95%
* CCN(C(C)=O)C1CCN(c2nccc(C3CCCC3)n2)C1 (stereo not given) : 2.093%
* FC(F)(F)Cn1ccnc1CN1CCCC1c1noc(C2CC2)n1 (stereo not given) : 7.876%
* Cc1noc(C)c1S(=O)(=O)N1CCc2nc(C3CCNCC3)ncc2C1 : 0.6796%
* CCc1cnc2c(c1Nc1ccc(C)c(F)c1)c(=O)n(C)c(=O)n2C : 10.42%
* CC(C)CCNC(=O)C(c1cccc(F)c1)N(C)C (stereo not given) : -8.081%
* COc1ccc2c(c1)OCC(CNC(=O)c1ccc3[nH]nnc3c1)C2 (stereo not given) : -6.875%
* Cc1cc(CN2C[C@H](OCC3CCOCC3)[C@H]3COC[C@H]32)oc1C : -10.97%
* CN(C)c1ncccc1CNC(=O)NCc1ccc(Cl)s1 : -5.684%
* COc1ccc2cnn(CC(=O)NCC3CCCO3)c(=O)c2c1OC (stereo not given) : -14.1%
* Cn1cc2c(n1)C(COCC1CC1)CN(Cc1ccsc1)C2 (stereo not given) : -13.4%

The first 6 entries again:

* CS(=O)(=O)N1CCCCCC1C1CCN(Cc2nc(C3CC3)no2)CC1 (stereo not given) | -3.453%
* O=C1CO[C@@H]2CN(CC3CCOCC3)C[C@H]2N1Cc1ccncc1 | 4.32%
* NC(=O)c1ccc(S(=O)(=O)NC2CCN(Cc3ccccc3)C2=O)cc1 (stereo not given) | 4.901%
* CCc1cn[nH]c1C1CCN(C(=O)c2cccc(O)c2C)CC1 | -2.219%
* CNC(=O)c1cccc(CC2COCCN(Cc3ccsc3)C2)n1 (stereo not given) | -12.23%
* CN(C1CCN(c2ccccn2)CC1)S(=O)(=O)c1cccc(F)c1 | -4.942%

The values are deposited in ChEMBL (CHEMBL3988442, “University of Dundee, Small-Polar-MMV Screening Library” (2021)).